From US20200291116A1 (ABEXXA BIOLOGICS, published 2020) come the findings set out here.

Amino acid sequences for entries named in this document (tags omitted). A change or cut given only in a name is not applied to a line headed by its entry.
UniProt P13747: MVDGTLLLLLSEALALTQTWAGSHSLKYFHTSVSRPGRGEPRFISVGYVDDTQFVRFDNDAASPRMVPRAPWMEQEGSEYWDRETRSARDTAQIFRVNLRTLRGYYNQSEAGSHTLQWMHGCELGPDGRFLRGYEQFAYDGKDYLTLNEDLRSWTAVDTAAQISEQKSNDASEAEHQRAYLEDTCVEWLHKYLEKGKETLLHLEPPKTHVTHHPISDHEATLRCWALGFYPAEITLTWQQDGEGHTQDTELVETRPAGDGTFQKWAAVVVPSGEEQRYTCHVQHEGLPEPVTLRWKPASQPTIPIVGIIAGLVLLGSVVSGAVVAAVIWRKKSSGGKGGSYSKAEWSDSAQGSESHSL
UniProt P61769: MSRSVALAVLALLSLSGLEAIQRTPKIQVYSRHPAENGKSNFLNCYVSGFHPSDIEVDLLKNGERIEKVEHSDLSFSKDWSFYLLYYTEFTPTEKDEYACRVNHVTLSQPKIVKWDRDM

The target of experiment [1] is T1, HLA-E molecules expressed in PDX lung tumor tissue (model LU5139) (human) (UniProt P13747+P61769). The experiment in a line: LC/MS/MS against a synthetic peptide standard.
Experiment [2] addresses T1, HLA-E molecules expressed in PDX lung tumor tissue (model LU5139) (human). The experiment in a line: LC/MS/MS of peptides eluted from HLA-E purified on a 4D12 column.

Results are given in words; binding and its absence hold for the method and conditions named. Some binding calls cover weakened binding; strength is not graded here.

As for GLADKVYFL [peptide GLADKVYFL (CAD protein)], the binding result in experiment [1] and in experiment [2] was “binds” each time.
